This is an account of results in patent US20140356909A1.

The target in this experiment is cynomolgus monkey IL-17A (cynomolgous monkey (cyno)). Nature of the experiment: ELISA of hybridoma supernatants. (ELISA stands for enzyme-linked immunosorbent assay.)

These are yes or no findings as the source states them, for the method shown. Some results given as binding are weak or reduced against the parent protein; the word gives no strength.

B1: ML109-10F7 (antibody, V domains shown)
VH: QVQLQQSGAELVRPGTSVTLSCKASGYIFTDYEIHWVKQTPVHGLEWIGVNDPESGGTFYNQKFDGKAELTADKSSSTAYMELRSLTSEDSGVYYCTRYYRYESFYGMDYWGQGTSITVSS
VL: QIVLTQSPAIMSASPGEKVTMTCSASSSISYIYWFQQKPGTSPKRWIYATFELASGVPARFSGSGSGTSYSLTISSMEAEDAATYYCHQRSSYPWTFGGGSKLEIKR
For the molecule B1, the binding result was “binds”.

B2: ML109-6C6 (antibody, V domains shown)
VH: QVQLQQSGAELVRPGASVKLSCKASGYTFSDYEIHWVKQTPVHGLAWIGVIHPGNGGTAYNQKFKDKATLTADKSSSTAYMELSSLTSEDSAVYYCERFLTYEGYFDYWGQGTTLTVSS
VL: SIVMTQTPKFLLVSAGDRVTITCKASQSVNNDVAWYQHKPGQSPKLLINYASNRYTGVPDRFTGSGYGTDFTFTISTVQAEDLAIYFCQQDYGSPYTFGGGTKLEIKR
In the case of B2, the binding entry is on record as “binds”.
